The assay deals with hAng2-Fc protein (Beijing Sino Biological) (human) (UniProt O15123). The assay can be described thus: flow cytometry blocking of hAng2-Fc binding to 293-tie2 cells; IC50 value not given. On the technique in general: Flow cytometry measures light scatter and fluorescence of single cells or particles in a stream.

Protein sequences, listed by entry. Tags and fused reporters are not part of them. Residues count along the entry.
UniProt O15123, residues 275-496: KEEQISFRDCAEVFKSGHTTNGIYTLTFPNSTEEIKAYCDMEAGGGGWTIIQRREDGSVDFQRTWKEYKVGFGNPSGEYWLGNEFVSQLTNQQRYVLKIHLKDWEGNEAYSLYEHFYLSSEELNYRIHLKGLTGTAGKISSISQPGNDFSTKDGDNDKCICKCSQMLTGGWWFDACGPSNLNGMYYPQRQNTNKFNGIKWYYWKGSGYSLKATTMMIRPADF

The values below come from EP4628512A1 (Innovent Biologics (Suzhou) Co., Ltd., dated 2025).

No constants are given. Whether binding was seen depends on the method and setting. Some results given as binding are weak or reduced against the parent protein; the word gives no strength.

B1: IAR044-032 (other)
chain: EVQLLESGGGLVQPGGSLRLSCAASGFALDYYAIGWFRQAPGKGLEGVSCISSGEGSTYYADSVKGRFTISRDNSKNTVYLQMNSLRAEDTAVYYCATDSRGDDVACEGLRRNEYDYWGQGTLVTVSSGGGGGGGGGGSDTGRPFVEMYSEIPEIIHMTEGRELVIPCRVTSPNITVTLKKFPLDTLIPDGKRIIWDSRKGFIISNATYKEIGLLTCEATVNGHLYKTNYLTHRQTNTIIDVVLSPSHGIELSVGEKLVLNCTARTELNVGIDFNWEYPSSKHQHKKLVNRDLKTQSGSEMKKFLSTLTIDGVTRSDQGLYTCAASSGLMTKKNSTFVRVHEKEKTHTCPPCPPCGGGGGGGGGGEVQLVESGGGLVQPGGSLRLSCAASGSSFSPYAMGWYRQAPGKQRELVSATSEGGFTLYADSVKGRFTISRDNSKNTVYLQMNSLRAEDTAVYYCYMHWRGSDPENYWGQGTQVTVSS
notes: No Fc; also called anti-VEGFA/VEGFC/Ang2 multi-specific fusion protein
B1: the binding entry was “binds”.

B2: IAR044-030 (other)
chain: EVQLLESGGGLVQPGGSLRLSCAASGFALDYYAIGWFRQAPGKGLEGVSCISSGEGSTYYADSVKGRFTISRDNSKNTVYLQMNSLRAEDTAVYYCATDSRGDDVACEGLRRNEYDYWGQGTLVTVSSGGGGGGGGGGSDTGRPFVEMYSEIPEIIHMTEGRELVIPCRVTSPNITVTLKKFPLDTLIPDGKRIIWDSRKGFIISNATYKEIGLLTCEATVNGHLYKTNYLTHRQTNTIIDVVLSPSHGIELSVGEKLVLNCTARTELNVGIDFNWEYPSSKHQHKKLVNRDLKTQSGSEMKKFLSTLTIDGVTRSDQGLYTCAASSGLMTKKNSTFVRVHEKESKYGPPCPPCPPCGGGGGGGGGGEVQLVESGGGLVQPGGSLRLSCAASGSSFSPYAMGWYRQAPGKQRELVSATSEGGFTLYADSVKGRFTISRDNSKNTVYLQMNSLRAEDTAVYYCYMHWRGSDPENYWGQGTQVTVSS
notes: as for B1
For B2, the binding result is reported as “binds”.
